The target in assay [1] is T1, Myc-SLC25A10 (human SLC25A10 pcDNA3.1-MYC-C) (human) (UniProt Q9UBX3).
T1 sequence: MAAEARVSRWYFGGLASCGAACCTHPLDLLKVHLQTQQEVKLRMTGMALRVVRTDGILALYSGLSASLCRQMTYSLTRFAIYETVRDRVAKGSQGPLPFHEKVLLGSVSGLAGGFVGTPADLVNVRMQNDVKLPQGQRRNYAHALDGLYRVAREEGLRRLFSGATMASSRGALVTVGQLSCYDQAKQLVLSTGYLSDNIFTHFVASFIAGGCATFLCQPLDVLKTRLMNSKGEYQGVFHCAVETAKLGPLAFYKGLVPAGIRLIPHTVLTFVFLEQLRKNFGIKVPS
Put plainly: co-IP; CRC cells transfected with HA-TRIM21 together with Myc-SLC25A10, Flag-INHBA or empty vector; 48 h, MG132 20 μM 4 h; anti-Myc beads, blot with anti-HA.

The chains behind the UniProt entries cited, without tags or fusion partners.
UniProt P19474: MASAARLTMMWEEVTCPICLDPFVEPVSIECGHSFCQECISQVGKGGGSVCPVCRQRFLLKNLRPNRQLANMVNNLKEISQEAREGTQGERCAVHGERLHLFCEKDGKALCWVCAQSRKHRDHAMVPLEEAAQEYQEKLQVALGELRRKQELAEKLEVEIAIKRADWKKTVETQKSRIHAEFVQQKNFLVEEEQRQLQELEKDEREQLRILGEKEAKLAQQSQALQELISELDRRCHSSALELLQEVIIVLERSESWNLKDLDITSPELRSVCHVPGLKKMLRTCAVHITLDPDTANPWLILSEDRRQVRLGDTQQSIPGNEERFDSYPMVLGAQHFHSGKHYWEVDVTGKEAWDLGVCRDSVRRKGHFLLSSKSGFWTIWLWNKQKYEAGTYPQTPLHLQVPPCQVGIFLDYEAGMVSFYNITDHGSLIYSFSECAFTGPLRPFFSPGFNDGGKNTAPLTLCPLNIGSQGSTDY

For assay [2], the target named is T2, HA-SLC25A10 (human SLC25A10 pcDNA3.1-HA-C) (human) (UniProt Q9UBX3).
T2 sequence: T1 sequence
Put plainly: co-IP; CRC cell lysates; protein A/G magnetic beads with antibody or anti-Flag / anti-HA magnetic beads, overnight at 4 °C, six washes with lysis buffer, Western blot.

Results are given in words; binding and its absence hold for the method and conditions named. In cells and extracts the contact can be indirect. Some entries that bind do so weakly or less than the wild type. Sequences can lack the tags named with a protein.

“HA-TRIM21 (human TRIM21 pcDNA3.1-HA-C) (from UniProt P19474 1-475)”: the binding entry in assay [1] is reported as “binds”. Regarding “TRIM21 in CRC cells (no TRIM21 construct named) (from UniProt P19474 1-475)”, in assay [2], the binding result is reported as “binds”.

The values are drawn from PMC12741050.
